Source: patent US20130189255A1, “FUSIONS AND CONJUGATES OF INSULINOTROPIC AGENTS” (GLAXO GROUP LIMITED, priority 2008, published 2013)
No constants are given. Whether binding was seen depends on the method and setting. Some entries that bind do so weakly or less than the wild type. Where a sequence is shown, tags or fusion partners need not be part of it.

The chains behind the UniProt entries cited, without tags or fusion partners. Residues count along the entry.
UniProt P02768, residues 25-609: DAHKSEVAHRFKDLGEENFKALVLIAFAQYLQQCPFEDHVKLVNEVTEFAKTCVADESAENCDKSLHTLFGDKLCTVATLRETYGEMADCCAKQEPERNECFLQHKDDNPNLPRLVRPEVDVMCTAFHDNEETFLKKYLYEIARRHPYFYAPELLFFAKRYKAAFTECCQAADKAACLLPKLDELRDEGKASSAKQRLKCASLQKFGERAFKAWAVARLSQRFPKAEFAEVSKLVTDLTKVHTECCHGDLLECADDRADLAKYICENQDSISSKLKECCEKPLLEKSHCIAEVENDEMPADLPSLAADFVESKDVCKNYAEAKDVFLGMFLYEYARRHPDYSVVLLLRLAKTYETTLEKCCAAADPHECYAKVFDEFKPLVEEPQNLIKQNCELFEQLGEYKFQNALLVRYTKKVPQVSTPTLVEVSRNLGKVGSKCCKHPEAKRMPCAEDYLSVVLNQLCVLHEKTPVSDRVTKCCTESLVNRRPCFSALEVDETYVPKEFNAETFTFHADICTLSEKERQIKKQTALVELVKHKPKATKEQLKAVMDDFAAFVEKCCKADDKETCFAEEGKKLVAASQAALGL
UniProt P07724, residues 25-608: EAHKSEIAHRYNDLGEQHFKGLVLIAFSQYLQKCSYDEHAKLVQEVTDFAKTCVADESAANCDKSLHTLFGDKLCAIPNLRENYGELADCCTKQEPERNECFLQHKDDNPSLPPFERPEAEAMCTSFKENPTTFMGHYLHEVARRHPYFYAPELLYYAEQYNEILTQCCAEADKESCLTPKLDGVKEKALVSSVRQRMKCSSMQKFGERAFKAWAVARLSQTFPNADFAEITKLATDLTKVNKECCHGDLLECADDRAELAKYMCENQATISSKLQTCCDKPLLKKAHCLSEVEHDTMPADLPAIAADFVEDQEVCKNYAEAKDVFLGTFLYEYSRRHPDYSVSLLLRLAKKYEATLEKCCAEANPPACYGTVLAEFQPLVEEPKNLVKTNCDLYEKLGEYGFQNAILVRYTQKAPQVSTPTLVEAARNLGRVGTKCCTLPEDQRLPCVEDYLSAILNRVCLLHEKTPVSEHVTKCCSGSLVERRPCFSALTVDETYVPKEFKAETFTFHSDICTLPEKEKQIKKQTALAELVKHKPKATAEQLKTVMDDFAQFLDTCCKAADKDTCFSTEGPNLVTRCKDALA
UniProt P02770, residues 25-608: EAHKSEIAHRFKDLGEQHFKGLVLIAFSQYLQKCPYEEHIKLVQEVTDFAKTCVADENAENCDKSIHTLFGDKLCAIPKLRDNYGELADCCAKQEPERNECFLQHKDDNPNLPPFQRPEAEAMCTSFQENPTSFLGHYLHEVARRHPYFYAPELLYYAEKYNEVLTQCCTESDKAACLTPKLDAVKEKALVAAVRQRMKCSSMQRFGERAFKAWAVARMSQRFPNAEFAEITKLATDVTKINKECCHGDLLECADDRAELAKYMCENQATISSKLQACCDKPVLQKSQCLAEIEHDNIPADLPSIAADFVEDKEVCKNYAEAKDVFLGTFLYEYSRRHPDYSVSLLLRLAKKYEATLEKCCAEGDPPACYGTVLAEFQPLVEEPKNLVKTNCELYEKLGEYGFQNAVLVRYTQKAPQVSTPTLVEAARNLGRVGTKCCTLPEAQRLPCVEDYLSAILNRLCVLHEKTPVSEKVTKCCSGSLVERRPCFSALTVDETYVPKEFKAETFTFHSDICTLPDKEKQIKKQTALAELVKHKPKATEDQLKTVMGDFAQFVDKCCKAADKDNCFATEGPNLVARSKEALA

How the values were obtained:
Assay in all cases: SPR (Biacore), albumin immobilised on CM5 chip
[1] = molecular target: Human serum albumin (human) (UniProt P02768)
[2] = molecular target: Mouse serum albumin (mouse) (UniProt P07724)
Rat serum albumin (rat) = Rat serum albumin (rat) (UniProt P02770)

- binding [1]: binds
- binding [2]: binds
- binding (Rat serum albumin (rat)): binds
B1: 2xGLP-1 (7-37) A8G DOM7h-14 dAb fusion (DAT0114) (protein)
chain: HGEGTFTSDVSSYLEGQAAKEFIAWLVKGRHGEGTFTSDVSSYLEGQAAKEFIAWLVKGRDIQMTQSPSSLSASVGDRVTITCRASQWIGSQLSWYQQKPGKAPKLLIMWRSSLQSGVPSRFSGSGSGTDFTLTISSLQPEDFATYYCAQGAALPRTFGQGTKVEIKA
